Assay results reported in patent publication US20110076262A1.
No constants are given. Whether binding was seen depends on the method and setting. Some results given as binding are weak or reduced against the parent protein; the word gives no strength.

Amino acid sequences for entries named in this document (tags omitted). Residues count along the entry.
UniProt O95750, residues 25-216: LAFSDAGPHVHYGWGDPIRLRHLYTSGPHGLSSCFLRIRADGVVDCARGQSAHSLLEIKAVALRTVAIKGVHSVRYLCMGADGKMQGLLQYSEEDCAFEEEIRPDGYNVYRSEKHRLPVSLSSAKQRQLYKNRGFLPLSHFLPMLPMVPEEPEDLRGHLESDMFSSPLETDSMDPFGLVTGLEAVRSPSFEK

Target: Human FGF19 (human) (UniProt O95750)
Assay: Biacore of IgG

binding: binds
B1: humanized 1A6 clone with S34G (1 change from 1A6-graft) (antibody, V domains shown)
VH: EVQLVESGGGLVQPGGSLRLSCAASGFSLTTYGVHWVRQAPGKGLEWVGVIWPGGGTDYNAAFISRFTISRDNSKNTLYLQMNSLRAEDTAVYYCVRKEYANLYAMDYWGQGTLVTVSS
VL: DIQMTQSPSSLSASVGDRVTITCKASQDINSFLGWYQQKPGKAPKLLIYRANRLVDGVPSRFSGSGSGTDFTLTISSLQPEDFATYYCLQYDEFPLTFGQGTKVEIKR
